Assay results reported in paper PMC3203094.
These are yes or no findings as the source states them, for the method shown. Binding seen in cells or lysates may run through a third protein. Some results given as binding are weak or reduced against the parent protein; the word gives no strength. For some assays here: Where a sequence is shown, tags or fusion partners need not be part of it.

Tests used:
bZIP63 (Arabidopsis) = bZIP63 (Arabidopsis) (UniProt B9DGI8); experiment: split reporter; BiFC: YFP^N and YFP^C fusions transiently co-expressed in rice green tissue protoplasts (PEG-mediated transfection, 10-15 ug total plasmid DNA, cultured 6-16 h at room temperature); YFP signal seen by confocal microscopy
[1] = biological target: T1, BAS1-c-myc-YFP^N (rice (Oryza sativa)) (UniProt Q6ER94); experiment: as above
T1 sequence: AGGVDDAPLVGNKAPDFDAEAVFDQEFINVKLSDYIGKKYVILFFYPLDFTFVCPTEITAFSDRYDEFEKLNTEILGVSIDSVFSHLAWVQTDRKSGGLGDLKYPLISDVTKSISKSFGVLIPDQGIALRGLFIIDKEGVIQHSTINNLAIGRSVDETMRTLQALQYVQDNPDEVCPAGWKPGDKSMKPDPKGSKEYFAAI

Binder | binding (bZIP63 (Arabidopsis)) | binding [1]
bZIP63 (protein, UniProt B9DGI8 1-314) MEKVFSDEEISGNHHWSVNGMTSLNRSASEWAFNRFIQESSAAADDGESTTACGVSVSSPPNVPVDSEEYRAFLKSKLNLACAAVAMKRGTFIKPQDTSGRSDNGGANESEQASLASSKATPMMSSAITSGSELSGDEEEADGETNMNPTNVKRVKRMLSNRESARRSRRRKQAHLSELETQVSQLRVENSKLMKGLTDVTQTFNDASVENRVLKANIETLRAKVKMAEETVKRLTGFNPMFHNMPQIVSTVSLPSETSNSPDTTSSQVTTPEIISSGNKGKALIGCKMNRTASMRRVESLEHLQKRIRSVGDQ | binds | –
OsTRX m5-HA-YFP^C (protein, UniProt Q9ZP20 60-172) CSNVVDEVVVADEKNWDSMVLGSEAPVLVEFWAPWCGPCRMIAPVIDELAKEYVGKIKCCKVNTDDSPNIATNYGIRSIPTVLMFKNGEKKESVIGAVPKTTLATIIDKYVSS | – | binds
